Experimental findings from the supplement of paper PMC11237882 are described below.

The list shows a part of the results. Values are worked out from sequencing counts and are noisy.

T1: Homer1 EVH1 domain
T1 chain: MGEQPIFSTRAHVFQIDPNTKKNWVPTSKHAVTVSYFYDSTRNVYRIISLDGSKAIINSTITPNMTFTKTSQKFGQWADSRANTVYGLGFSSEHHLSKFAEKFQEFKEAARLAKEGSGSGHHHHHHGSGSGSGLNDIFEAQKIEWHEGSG

The assay has as its target T1, Homer1 EVH1 domain. The assay can be described thus: enrichment score (AUC of log2 frequency ratio across FACS sorting rounds) (log2 AUC); higher = stronger enrichment for Homer1 EVH1 binding.
Take VMAYDRFVAVCHPLHYMIIMNPHLCGLLVFVTWLIG: the enrichment score was 2.71. The result for QWWHQAFYNFFTFSCLFIIPLFIMLICNAKIIFTLT reads 4.47; that for GEPPPPAAPALMITPIINWGMALCLVLALHGPRTLH, 1.58. Then MTLLPGLLFLTWLHTCLAHHDPSLRGHPHSHGTPHC, with 0.36; and SFGEIASGFWQATAIFLAVGIFILCMVALVSVFTMC, with -0.234; and PGYYLYSQGLLTLNTVCLMSGIAGFALTMLCWMSYY, with 3.78. Take LVHGDVPENQLKWTVFVRALINDSLFILCAISLVCY: the enrichment score turned out to be 3.03. Take TSLWVRNIQMYLSGIIVTLAGVYLSDGAEIKEKGFF: the enrichment score was -0.117. Then LQEQLKKNKGFRRFVRLQEGRPGFGGLQLQDLLPLP, with 1.33; and SYVGLVLVLLRGLPGSGKSFLARTLQEDNPSGVILS, with 2.17.

Take IFKAFSMLSAHVIVVVLVFGPLIFFYIFPFPTSHLD: the enrichment score is 0.113. Consider KNGFFQGYNRLTWIVVVLQALGGLVIAAVIKYADNI, for which the enrichment score amounted to 0.477. On to SPSPLQQIPMRSSAAEAWPGCHRRSFTKKVSRPEPL, for which the enrichment score was 0.731. The result for IGSVLGALIGVAGSTYVNRVRLQELKALLLEAQKGP reads 0.27; that for SSTTKLYLAKQVFVGFLLILAAIELPLVLTEDSGPA, 0.755. Turning to RFRRSLLLLVKHSCVESLFLVRNFCILYYFLGYIPK, the enrichment score was -5.02. With PRAAVHNGFWFFKFAAAIAIIIGAFFIPEGTFTTVW, the enrichment score is 0.3. In the case of LLYPVIMTNELCIQLLVLSFIGGLLHALIHEAFSFR, the enrichment score was found to be 2.84.

In the case of GNIDQVAVVAINVLFFVTLFIFALFETIITPLTMDM, the enrichment score was determined as 3.65. Then ETLQRSWETKVGTLVRRESSGESLFIALLLTQALIC, with 0.82.

MWLPWALLLLWVPGCFALSKCRTVAGPVGGSLSVQC: the enrichment score came out at 0.0316. Then PPAEDREEAGSPTLPQGPPVPGDPWPGAPPLFEDPP, with 0.966; and PAVRLNSTGAPASLGAGGGASSVPLSVLILNLLLVF, with 1.14; and EMLDIFVHQLLVLVVFLTGLVAFLEFLVRNNVLLEL, with 0.94.

As for VYPWWGEAMGWAFALSSMLCVPLHLLGCLLRAKGTI, the enrichment score turned out to be 2.96.

With YQHHFIQHFLRKHYNEWITNIYVKPFVVILYLIYAS, the enrichment score stood at 1.14. Consider MQQNNSVTEFILLGLTQDPLRQKIVFVIFLVFYMGT, for which the enrichment score was found to be 1.39. With DRSLINLHLMHTSYFLFVMVITMFCYAVINGRPSKL, the enrichment score was determined as 4.59. On to LGLGVAVVSSLVNGSTFVLQKKGIVRAKRRGTSYLT, for which the enrichment score was -1.03. Then RFLAWDKGLRVSDKYLLAMVIVYFSRAGLQSWQYQC, with 2.11. Then DHTNKGWSGDNSPGIEALCAIYITYAVIISVGILGN, with 3.06; and DRGAEEPISVSQMFQPIILLILILVLFSSLSYTTIF, with 2.43; and LKRPEVIATCGVALWLLLLGTAVCIHRRRRARVHLD, with 2.56.

As for MLRNGSIVTEFILVGFQQSSTSTRALLFALFLALYS, the enrichment score is 0.756.

In the case of TRYKGNGGVYGWDLKRKIISRGANFLTQILLRPGAS, the enrichment score is -0.215.

With FPNGQTSYASSNKLTNYVWYFEGICFSGIMMLIVTT, the enrichment score was determined as 0.176. The result for SIHSVLFRKDPFLWRAALLYYTVYQANQISFCELFK reads 0.438; that for LGDLNIQQNSKYPILFLFLLITYVILTFVLLLNMLI, -0.444; that for VGFFFPLIMMLTWMVSVASMVRKLVYEQEIQIEEYM, -1.91.

Turning to TEPRDSMQYVLYVRLAILVIEFIYAIVGIVWLTQYY, the enrichment score was 2.22. Take VPPFGENPWWVCLAAAIPALLVAILIFMDQQITAVI: the enrichment score came to 3.81. The result for SHGRIQRVQRRRVPSASPLIQKINRRSVLFHPYCWS reads -0.442; that for VMAYDRYVAICNPLLYMVVVSRRLCLLLVSLTYLYG, -2. The result for TSDMDIGKRKIMCVAGIGLVVLFFSWMLSIFRSKYH reads 0.195.
